Among the data in publication PMC10945694 are binding values, retold here.

Protein sequences, listed by entry. Tags and fused reporters are not part of them.
UniProt Q6PDM2: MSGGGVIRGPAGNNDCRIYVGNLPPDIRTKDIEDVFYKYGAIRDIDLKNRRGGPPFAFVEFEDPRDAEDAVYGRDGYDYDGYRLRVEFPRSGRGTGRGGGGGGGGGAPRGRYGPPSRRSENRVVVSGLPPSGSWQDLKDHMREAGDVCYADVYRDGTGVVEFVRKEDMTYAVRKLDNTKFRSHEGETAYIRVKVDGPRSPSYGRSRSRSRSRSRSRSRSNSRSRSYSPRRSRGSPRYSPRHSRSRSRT
UniProt Q9R0U0: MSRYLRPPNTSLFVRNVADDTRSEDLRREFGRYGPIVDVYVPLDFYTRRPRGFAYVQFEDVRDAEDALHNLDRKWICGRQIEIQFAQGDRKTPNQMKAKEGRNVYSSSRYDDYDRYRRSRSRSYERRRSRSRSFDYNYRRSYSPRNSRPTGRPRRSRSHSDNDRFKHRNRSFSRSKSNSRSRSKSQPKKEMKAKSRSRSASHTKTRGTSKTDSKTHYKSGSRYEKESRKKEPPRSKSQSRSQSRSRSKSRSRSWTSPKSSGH
UniProt Q8BTI8: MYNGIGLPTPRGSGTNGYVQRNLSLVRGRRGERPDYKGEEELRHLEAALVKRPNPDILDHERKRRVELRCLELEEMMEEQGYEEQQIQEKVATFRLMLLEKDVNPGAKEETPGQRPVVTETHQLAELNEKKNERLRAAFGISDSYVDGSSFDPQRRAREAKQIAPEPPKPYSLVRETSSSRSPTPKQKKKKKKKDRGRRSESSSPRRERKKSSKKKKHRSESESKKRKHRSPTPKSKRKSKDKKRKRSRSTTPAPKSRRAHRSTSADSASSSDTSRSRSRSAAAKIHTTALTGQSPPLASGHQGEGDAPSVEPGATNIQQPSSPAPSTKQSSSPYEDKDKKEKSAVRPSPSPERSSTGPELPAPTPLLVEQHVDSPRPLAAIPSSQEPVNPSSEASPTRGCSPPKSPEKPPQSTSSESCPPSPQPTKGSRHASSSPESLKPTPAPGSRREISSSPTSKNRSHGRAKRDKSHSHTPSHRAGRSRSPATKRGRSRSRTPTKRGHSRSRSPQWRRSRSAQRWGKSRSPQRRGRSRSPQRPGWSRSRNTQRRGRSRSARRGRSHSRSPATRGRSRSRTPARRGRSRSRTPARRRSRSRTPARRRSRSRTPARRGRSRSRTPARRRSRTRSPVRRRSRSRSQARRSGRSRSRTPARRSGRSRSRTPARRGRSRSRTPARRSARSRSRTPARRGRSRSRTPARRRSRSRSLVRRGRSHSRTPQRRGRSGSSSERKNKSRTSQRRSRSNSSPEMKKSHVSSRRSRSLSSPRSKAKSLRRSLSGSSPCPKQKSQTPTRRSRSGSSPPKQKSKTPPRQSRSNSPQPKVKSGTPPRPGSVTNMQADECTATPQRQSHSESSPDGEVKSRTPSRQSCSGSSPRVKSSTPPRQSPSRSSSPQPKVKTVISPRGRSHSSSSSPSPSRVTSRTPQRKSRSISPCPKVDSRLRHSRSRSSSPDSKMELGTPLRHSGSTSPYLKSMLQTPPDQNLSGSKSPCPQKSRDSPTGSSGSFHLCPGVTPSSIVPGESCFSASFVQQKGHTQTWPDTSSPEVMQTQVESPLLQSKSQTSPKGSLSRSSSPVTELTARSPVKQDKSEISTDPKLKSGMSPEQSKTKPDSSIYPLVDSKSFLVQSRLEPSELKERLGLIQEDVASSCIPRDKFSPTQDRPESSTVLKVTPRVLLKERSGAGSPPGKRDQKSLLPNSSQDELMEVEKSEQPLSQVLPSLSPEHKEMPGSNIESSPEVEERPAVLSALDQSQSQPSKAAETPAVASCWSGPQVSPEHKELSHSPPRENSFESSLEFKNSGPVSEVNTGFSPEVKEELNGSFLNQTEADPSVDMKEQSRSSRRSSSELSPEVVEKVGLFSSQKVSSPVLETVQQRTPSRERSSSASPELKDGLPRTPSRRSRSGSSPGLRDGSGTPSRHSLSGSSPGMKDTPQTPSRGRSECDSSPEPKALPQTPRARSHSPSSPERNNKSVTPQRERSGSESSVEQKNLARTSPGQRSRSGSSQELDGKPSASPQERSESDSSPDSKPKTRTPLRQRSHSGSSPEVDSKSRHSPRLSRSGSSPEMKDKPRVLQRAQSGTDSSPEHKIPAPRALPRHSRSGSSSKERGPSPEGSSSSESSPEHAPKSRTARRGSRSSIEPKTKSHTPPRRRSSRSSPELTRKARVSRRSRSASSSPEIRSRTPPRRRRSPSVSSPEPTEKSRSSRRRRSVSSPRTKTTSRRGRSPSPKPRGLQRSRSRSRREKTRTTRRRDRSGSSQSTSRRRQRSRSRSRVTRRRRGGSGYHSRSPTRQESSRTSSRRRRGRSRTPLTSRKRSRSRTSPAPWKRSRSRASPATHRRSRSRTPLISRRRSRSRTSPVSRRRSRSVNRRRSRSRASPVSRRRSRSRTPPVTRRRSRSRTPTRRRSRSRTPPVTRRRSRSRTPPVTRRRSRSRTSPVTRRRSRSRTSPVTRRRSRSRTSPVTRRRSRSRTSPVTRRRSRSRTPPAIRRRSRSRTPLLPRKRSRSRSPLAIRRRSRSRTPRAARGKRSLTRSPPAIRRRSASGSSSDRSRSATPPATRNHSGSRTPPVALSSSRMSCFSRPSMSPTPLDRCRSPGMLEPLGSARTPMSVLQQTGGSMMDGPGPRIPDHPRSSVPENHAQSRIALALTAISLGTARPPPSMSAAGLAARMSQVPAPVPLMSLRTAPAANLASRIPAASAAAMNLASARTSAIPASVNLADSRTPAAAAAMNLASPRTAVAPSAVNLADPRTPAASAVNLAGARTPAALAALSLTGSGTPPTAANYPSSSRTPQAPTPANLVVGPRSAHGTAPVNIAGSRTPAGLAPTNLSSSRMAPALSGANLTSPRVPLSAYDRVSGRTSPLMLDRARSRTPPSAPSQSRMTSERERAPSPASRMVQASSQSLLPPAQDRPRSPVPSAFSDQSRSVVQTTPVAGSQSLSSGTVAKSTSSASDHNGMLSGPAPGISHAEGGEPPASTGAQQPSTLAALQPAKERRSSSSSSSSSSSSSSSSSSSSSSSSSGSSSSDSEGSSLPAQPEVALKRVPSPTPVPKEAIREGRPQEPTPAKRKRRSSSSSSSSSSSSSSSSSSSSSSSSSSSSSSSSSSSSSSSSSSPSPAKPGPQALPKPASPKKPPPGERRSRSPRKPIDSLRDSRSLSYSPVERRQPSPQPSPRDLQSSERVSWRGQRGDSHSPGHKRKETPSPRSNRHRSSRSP

This assay concerns the target Serine/arginine-rich splicing factor 1 (SRSF1), endogenous in mouse testis (mouse (endogenous in 5 dpp mouse testis)) (UniProt Q6PDM2). Put plainly: affinity purification with mass spectrometry; IP with SRSF1 antibody (sc-33652) and normal mouse IgG as control from 5 dpp mouse testis extracts, protein A agarose, 4°C; Q-Exactive mass spectrometry, Mascot search against the mouse database.

Results are given in words; binding and its absence hold for the method and conditions named. Binding seen in cells or lysates may run through a third protein. These calls come from enrichment with a bait or labelling near it, and not all partners need be listed.

As to “SRSF10, endogenous in mouse testis (from UniProt Q9R0U0 1-262)”, the binding result is “binds”.
Regarding “SRRM2, endogenous in mouse testis (from UniProt Q8BTI8 1-2703)”, the binding entry is “binds”.

B1: SF3A2, endogenous in mouse testis (protein, UniProt Q62203 1-475)
chain: MDFQHRPGGKTGSGGVASSSESNRDRRERLRQLALETIDINKDPYFMKNHLGSYECKLCLTLHNNEGSYLAHTQGKKHQTNLARRAAKEAKEAPAQPAPEQVKVEVKKFVKIGRPGYKVTKQRDTEMGQQSLLFQIDYPEIAEGIMPRHRFMSAYEQRIEPPDRRWQYLLMAAEPYETIAFKVPSREIDKAEGKFFFLQFHFKMEKPPAPPSLPAGPPGVKRPPPPLMNGLPPRPPLPDALPPPPPGGLPLPPMPPTGPAPSGPPGPPQMPPPAPGVHPPAPVVHPPTSGVHPPAPGVHPPAPVVHPPTSGVHPPAPGVHPPTPGVHPPAPGVHPPAPGVHPPAPGVHPPTPGVHPPAPGVHPPAPGVHPPAPGVHPPPSAGVHPQAPGVHPPAPAVHPQAPGVHPPAPGIHPQAPGVHPQPPPGVHPAAPGVHPQPPGVHPSNPGVHPAPMPPMLRPPLPSDGPGNMPPPPPGN
With B1, the binding result was “binds”.

B2: SART1, endogenous in mouse testis (protein, UniProt Q9Z315 1-806)
chain: MGSSKKHRGEKEAAGTTAAAGTGGTTEQPPRHREHKKHKHRSSGGGSSGGERRKRSRERGSERGSGRRGAEAEARSGAHGRERSQAEPSERRVKREKRDDGYEAAASSKASSGDASSLSIEETNKLRAKLGLKPLEVNAVKKEAGTKEEPVAADVINPMALRQREELREKLAAAKEKRLLNQKLGKIKTLGEDDPWLDDTAAWIERSRQLQKEKDLAEKRAKLLEEMDQEFGVSTLVEEEFEQRRQDLYSARDLQGLTVEHAIDSFREGETVVLTLKDKGVLQDGEDVLVNVNMVDKERADKNVELRKKKPDYLPYAEDESVDDLAQQKPRSILAKYDEELEGERPHSFRLEQGGMADGLRERELEEIRTKLRLQAQSLSSVGPRLASEYLSPEEMVTFKKTKRRVKKIRKKEKEVIMRADDLLPLGDQTQDGDFGSRLRGRGRRRVPEVEEEALEDEEKDPVAQPPPSDDTRVENMDISDEEDGGALPPGSPEGLEEDEAELELQKQLEKGRRLRQLQQLQQLRDSGEKVLEIVKKLESRQRGWEEEEDPERKGTIVFNATSEFCRTLGEIPTYGLAGNREEQEELMDFERDEERSANGGSESDGEENIGWSTVNLDEEKQHQDFSASSTTILDEEPIVNRGLAAALLLCQNKGLLETTVQKVARVKAPNKSLPSAVYCIEDKMAIDDKYSRREEYRGFTQDFKEKDGYKPDVKIEYVDETGRKLTPKEAFRQLSHRFHGKGSGKMKTERRMKKLDEEALLKKMSSSDTPLGTVALLQEKQKAQKTPYIVLSGSGKSMNANTITK
As for B2, the binding result is given as “binds”.

B3: RBM15, endogenous in mouse testis (protein, UniProt Q0VBL3 1-962)
chain: MRSAGREPLPRRSPRWRRASPLCETSAGWRVSQLRRDDLRRPSTMKGKERSPVKPKRSRGGEDSSSRGERSKKLGGSGGSNGSSSGKTDSGGSRRSLHLDKSSSRGGSREYETGGGSSSSRLHSYSSPSTKNSSGGGESRSSSRGGGGESRSSGAASSAPGGGDGVEYKTLKISELGSQLSDEAVEDGLFHEFKRFGDVSVKISHLSGSGSGDERVAFVNFRRPEDARAAKHARGRLVLYDRPLKIEAVYVSRRRSRSPLDKDAYAPSSSVVGTSVGSHRHAPGGGGGQRSLSPGGAALGYRDYRLQQLALGRLPPPPPPPLPRELERERDYPFYDRVRPAYSLEPRVGAGAGAAPFREVDEISPEDDQRANRTLFLGNLDITVTENDLRRAFDRFGVITEVDIKRPSRGQTSTYGFLKFENLDMSHRAKLAMSGKIIIRNPIKIGYGKATPTTRLWVGGLGPWVPLAALAREFDRFGTIRTIDYRKGDSWAYIQYESLDAAHAAWTHMRGFPLGGPDRRLRVDFADTEHRYQQQYLQPLPLTHYELVTDTFGHRAPDPLRSARDRTPPLLYRDRDRDLYTDSDWVPPPPPVRERSARAATSAVTAYEPLDSLDRRRDGWSLDRDRGDRDLPSSRDQPRKRRLPEESGGRHLDRSPESERPRKQRHCTPSPDRSPELSSNRDRYNSDNDRSSRLLLLERSSPVRDRRGSLEKSQSDKRDRKNSASAERDRKHRTAAPTEGKNPLKKEDRSDGNAPSASTSSSKQKPPSQKQDGGTAPVAASSPKLCLAWQGMLLLKNSNFPSNMHLLQGDLQVASSLLVEGSTGGKVAQLKITQRLRLDQPKLDEVTRRIKVAGPNGYAILLAVPGSSDSRSSSSSATSDTAASTQRPLRNLVSYLKQKQAAGVISLPVGGNKDKENTGVLHAFPPCEFSQQFLDSPAKALAKSEEDYLVMIIVRAKLVNSG
With B3, the binding result is given as “binds”.
